Measured values as given in the supplement of paper PMC10849652.
The other results are listed elsewhere or left out.

By UniProt entry, the sequences of proteins in these tests, tags left out. Where a name states a change or a piece, a line headed by the entry shows the natural chain unless it says otherwise.
UniProt Q16539, whole entry, looked up: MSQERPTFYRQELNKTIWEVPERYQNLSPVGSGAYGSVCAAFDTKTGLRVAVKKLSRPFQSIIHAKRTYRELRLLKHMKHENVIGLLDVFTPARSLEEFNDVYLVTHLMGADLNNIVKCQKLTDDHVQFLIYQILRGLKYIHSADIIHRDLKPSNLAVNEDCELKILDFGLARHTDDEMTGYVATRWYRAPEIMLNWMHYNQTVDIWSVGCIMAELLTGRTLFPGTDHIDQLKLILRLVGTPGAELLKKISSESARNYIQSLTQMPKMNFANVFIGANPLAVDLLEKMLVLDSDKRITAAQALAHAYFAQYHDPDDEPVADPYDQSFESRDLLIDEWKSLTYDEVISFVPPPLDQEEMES
UniProt Q9UK45: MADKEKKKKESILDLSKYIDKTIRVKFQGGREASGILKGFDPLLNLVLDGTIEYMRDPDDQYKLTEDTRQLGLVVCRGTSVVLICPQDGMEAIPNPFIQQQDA
UniProt P48449: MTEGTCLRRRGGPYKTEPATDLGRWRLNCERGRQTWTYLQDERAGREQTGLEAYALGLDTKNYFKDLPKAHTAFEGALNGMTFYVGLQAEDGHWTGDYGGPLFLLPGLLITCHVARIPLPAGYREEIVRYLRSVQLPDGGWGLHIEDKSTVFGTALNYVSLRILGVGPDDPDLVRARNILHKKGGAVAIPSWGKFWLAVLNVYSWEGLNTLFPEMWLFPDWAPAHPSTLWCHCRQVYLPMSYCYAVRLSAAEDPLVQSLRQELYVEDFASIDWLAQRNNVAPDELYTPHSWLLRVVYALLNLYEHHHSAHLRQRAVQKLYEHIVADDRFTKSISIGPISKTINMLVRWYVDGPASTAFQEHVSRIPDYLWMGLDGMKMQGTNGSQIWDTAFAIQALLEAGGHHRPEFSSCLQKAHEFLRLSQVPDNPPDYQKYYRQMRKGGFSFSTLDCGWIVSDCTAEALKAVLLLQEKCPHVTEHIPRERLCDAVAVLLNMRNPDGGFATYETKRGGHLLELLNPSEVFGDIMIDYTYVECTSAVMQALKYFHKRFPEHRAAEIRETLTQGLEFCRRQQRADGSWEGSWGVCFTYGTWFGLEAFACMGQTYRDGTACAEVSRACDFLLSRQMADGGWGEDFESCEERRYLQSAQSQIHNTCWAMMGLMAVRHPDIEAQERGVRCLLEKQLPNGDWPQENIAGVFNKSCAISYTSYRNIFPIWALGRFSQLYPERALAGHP
UniProt Q9Y2E5: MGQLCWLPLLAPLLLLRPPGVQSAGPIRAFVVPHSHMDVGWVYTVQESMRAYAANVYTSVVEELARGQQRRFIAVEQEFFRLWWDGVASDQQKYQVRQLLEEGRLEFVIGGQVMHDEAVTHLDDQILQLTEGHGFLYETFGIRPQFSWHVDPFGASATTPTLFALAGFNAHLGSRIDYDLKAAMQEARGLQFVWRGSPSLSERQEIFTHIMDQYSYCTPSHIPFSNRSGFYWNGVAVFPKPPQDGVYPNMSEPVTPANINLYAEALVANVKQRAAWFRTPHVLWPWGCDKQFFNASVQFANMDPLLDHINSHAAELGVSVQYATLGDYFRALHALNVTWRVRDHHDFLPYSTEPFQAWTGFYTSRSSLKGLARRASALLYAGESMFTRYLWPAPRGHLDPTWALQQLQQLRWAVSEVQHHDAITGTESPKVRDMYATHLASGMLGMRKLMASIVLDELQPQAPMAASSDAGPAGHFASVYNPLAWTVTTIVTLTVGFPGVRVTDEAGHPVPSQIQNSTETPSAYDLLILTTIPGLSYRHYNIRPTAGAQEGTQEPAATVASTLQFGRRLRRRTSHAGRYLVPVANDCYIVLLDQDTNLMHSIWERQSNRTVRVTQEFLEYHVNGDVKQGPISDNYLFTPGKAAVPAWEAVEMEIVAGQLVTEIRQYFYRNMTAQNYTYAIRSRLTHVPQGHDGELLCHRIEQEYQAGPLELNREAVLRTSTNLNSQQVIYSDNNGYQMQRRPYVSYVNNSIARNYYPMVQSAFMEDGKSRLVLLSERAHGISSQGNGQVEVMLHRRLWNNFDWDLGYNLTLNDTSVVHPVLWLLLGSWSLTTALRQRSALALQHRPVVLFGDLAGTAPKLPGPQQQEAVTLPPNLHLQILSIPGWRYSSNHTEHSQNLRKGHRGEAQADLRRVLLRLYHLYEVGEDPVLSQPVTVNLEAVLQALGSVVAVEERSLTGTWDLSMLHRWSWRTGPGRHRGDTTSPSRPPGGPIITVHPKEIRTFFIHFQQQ
UniProt Q9Y4Z0: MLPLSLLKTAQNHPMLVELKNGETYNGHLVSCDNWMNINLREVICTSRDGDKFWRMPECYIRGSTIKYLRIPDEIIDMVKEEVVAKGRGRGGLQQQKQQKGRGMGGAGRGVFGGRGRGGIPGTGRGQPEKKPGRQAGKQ
UniProt O00754: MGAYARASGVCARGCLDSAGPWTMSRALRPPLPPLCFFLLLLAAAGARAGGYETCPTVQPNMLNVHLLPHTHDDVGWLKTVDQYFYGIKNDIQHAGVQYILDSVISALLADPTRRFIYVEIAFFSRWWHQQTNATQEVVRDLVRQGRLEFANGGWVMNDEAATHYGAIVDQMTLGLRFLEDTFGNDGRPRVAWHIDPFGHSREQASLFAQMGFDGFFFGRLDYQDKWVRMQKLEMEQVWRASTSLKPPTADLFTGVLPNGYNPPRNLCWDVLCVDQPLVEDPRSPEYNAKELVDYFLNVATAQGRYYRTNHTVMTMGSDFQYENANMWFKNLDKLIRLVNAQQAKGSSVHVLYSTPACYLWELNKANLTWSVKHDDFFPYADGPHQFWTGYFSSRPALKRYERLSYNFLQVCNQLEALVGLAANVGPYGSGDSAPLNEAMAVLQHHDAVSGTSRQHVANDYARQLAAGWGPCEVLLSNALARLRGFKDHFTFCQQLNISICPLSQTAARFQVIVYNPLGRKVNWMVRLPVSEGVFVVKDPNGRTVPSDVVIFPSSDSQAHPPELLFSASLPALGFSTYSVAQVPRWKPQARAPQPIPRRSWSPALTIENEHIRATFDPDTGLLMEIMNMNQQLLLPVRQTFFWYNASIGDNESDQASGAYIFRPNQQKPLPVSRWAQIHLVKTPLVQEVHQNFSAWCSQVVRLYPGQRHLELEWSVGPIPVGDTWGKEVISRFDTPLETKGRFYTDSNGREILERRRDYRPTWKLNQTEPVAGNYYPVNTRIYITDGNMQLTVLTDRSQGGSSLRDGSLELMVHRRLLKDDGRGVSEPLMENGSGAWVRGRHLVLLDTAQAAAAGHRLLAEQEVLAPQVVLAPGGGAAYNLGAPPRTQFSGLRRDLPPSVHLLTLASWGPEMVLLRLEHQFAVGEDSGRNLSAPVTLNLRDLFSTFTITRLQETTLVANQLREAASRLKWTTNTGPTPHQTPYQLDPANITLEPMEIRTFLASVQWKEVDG
UniProt P33908: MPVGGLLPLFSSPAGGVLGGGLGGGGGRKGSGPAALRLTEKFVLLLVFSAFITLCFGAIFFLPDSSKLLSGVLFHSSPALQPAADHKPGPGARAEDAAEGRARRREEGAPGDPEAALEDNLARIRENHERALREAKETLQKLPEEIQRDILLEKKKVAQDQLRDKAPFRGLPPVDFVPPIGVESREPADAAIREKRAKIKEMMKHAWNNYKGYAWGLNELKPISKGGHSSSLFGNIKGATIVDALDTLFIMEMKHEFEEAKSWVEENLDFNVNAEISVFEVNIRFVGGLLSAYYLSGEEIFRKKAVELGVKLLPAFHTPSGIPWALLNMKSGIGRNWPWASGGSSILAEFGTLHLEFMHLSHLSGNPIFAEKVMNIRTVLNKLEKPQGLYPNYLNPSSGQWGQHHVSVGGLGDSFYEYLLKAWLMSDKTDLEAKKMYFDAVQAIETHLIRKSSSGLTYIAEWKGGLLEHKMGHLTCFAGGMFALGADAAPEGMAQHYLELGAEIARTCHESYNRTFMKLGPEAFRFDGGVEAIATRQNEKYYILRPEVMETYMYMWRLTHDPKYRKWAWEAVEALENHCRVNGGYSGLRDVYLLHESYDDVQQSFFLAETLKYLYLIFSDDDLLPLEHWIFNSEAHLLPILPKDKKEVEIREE
UniProt Q8WV07: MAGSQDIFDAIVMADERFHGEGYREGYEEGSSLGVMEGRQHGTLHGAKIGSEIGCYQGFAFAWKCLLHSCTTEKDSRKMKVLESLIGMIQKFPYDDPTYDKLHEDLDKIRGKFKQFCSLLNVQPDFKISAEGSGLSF
UniProt Q6ZN28: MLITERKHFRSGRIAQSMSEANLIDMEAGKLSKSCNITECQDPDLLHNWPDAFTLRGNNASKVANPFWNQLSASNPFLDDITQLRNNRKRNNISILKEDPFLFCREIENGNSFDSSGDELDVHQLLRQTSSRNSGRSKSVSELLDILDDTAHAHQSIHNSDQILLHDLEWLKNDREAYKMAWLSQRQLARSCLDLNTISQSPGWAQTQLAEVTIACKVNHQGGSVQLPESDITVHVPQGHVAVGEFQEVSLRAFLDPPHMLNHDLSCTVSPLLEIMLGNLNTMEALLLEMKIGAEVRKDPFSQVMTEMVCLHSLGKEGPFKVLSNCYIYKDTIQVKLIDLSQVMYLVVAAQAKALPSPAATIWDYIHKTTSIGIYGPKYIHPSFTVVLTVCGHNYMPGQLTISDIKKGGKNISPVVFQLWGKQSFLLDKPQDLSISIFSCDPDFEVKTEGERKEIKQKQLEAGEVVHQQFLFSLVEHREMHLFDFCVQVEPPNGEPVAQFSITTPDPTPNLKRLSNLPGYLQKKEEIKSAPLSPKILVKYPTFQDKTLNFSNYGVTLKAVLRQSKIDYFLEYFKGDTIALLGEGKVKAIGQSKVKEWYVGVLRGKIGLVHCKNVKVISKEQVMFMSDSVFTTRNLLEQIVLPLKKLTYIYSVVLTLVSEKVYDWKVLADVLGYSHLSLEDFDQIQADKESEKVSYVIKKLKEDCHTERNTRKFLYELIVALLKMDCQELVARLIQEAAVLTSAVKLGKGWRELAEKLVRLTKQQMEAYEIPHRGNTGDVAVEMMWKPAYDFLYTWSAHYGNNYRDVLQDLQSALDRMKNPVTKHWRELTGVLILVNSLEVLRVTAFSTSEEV
UniProt Q9UFC0: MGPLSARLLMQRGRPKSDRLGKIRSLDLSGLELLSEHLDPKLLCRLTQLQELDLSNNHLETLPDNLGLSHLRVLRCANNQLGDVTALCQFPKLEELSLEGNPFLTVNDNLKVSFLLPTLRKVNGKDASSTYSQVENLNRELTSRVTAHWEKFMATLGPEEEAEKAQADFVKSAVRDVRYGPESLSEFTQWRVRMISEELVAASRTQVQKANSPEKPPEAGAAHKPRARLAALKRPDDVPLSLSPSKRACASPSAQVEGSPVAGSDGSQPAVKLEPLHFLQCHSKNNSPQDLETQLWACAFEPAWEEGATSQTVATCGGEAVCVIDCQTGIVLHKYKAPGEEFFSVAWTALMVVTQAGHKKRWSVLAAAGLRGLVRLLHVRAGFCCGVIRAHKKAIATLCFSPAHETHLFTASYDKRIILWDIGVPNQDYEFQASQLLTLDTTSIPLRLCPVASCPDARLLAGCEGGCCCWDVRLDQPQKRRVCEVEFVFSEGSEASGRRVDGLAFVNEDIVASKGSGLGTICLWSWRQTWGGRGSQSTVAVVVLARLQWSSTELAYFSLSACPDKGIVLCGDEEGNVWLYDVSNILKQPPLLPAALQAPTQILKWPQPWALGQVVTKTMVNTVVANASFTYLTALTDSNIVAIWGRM
UniProt Q9NQ48: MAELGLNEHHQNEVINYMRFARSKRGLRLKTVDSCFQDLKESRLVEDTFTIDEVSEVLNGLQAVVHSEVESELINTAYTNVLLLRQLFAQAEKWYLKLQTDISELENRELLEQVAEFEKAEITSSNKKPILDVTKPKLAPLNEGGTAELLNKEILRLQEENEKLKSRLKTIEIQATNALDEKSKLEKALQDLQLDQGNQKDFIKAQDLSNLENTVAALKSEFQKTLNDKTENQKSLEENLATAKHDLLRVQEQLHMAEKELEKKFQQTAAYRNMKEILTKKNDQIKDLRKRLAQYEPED

Columns and labels:
Experiment in all cases: log2 fold change, soluble protein after heating vs DMSO (PISA); higher = thermal stabilisation; K562 cells, 10 uM, 30 min; active = over 0.2 and 3.5 SD of the protein, either way, in both replicates (recomputed)
[1] = compound: C#Cc1cccc(Nc2ncnc3cc(OCCOC)c(OCCOC)cc23)c1 [erlotinib]
How it was run: (§1)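 K562 cells at 2×10^6 cells/mL were treated for 30 min with 10 μM compound, and aliquots were heated for 3 min over 48°C-58°C before pooling. Extraction used PBS with 0.5% NP-40 at 4°C, and soluble protein was the supernatant after 21,000xg for 90 min, measured by TMTpro 16plex LC-MS/MS with channel sums equalised. Thermal stability values, relative to control samples and from duplicates, are log2 fold changes.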

[2] = compound: C/C(=N\NC(=O)C1=CC(=CC=C1)S(=O)(=O)N2CCOCC2)/C3=C(C=CC(=C3)Cl)O
How it was run: as §1

[3] = compound: C1=CC(=C(C=C1Cl)C2=NC3=NC=CN=C3C(=N2)NC4=CC=NC=C4)F
How it was run: as §1

[4] = compound: C1=CC(=CC=C1C2=NC3=C(N2)C=C(C=C3)C(=O)N)OC4=CC=C(C=C4)Cl
How it was run: as §1

[5] = compound: C1=CC2=C(C=CC(=C2)/C=C\3/C(=O)NC(=NCC4=CC=CS4)S3)N=C1
How it was run: as §1

[6] = compound: C1=CC2=NC=CN=C2C=C1/C=C/3\C(=O)NC(=O)S3
How it was run: as §1

[7] = compound: C1=CC=C(C=C1)C2=NC(=C(N2)C3=CC=NC=C3)C4=CC(=C(C=C4)Cl)O
How it was run: as §1

[8] = compound: C1=CC=C2C(=C1)C3=NNC4=CC=CC(=C43)C2=O
How it was run: as §1

[9] = compound: C1CCN(C1)C(=O)NC2=CC=CC(=C2)NC3=NC=C(C(=N3)NCCC4=CN=CN4)Br
How it was run: as §1

[10] = compound: C1CN(CCC1(CC2=CC=C(C=C2)Cl)N)C3=NC=NC4=C3C=CN4
How it was run: as §1

Measured: log2 fold change

MAP2K2 (UniProt P36507)
inactive: [1] 0.021 | [2] -0.005 | [3] 0.05 | [4] -0.001 | [5] 0.054 | [6] -0.005 | [7] -0.058 | [8] -0.029 | [9] -0.003 | [10] 0.016

MAPK14 isoform 2 (UniProt Q16539)
active: [3] 0.936 | [7] 1
inactive: [1] 0.313 | [2] -0.051 | [4] -0.136 | [5] 0.01 | [6] -0.013 | [8] 0.207 | [9] 0.021 | [10] -0.102

LSM7 (UniProt Q9UK45)
inactive: [1] 0.026 | [2] 0 | [3] 0.062 | [4] -0.032 | [5] 0.068 | [6] 0.076 | [7] 0.01 | [8] -0.042 | [9] 0.017 | [10] -0.013

LSS (UniProt P48449)
inactive: [1] 0.293 | [2] 0.073 | [3] -0.029 | [4] 0.051 | [5] 0.128 | [6] 0.069 | [7] -0.005 | [8] 0.081 | [9] 0.005 | [10] 0.089

MAN2B2 (UniProt Q9Y2E5)
inactive: [1] -0.035 | [2] 0.005 | [3] -0.008 | [4] -0.003 | [5] 0.076 | [6] 0.025 | [7] -0.07 | [8] 0.063 | [9] -0.02 | [10] -0.186

2 entries drawn at random from those above, as already listed:
LSM7 (UniProt Q9UK45)
inactive: [1] 0.026 | [2] 0 | [3] 0.062 | [4] -0.032 | [5] 0.068 | [6] 0.076 | [7] 0.01 | [8] -0.042 | [9] 0.017 | [10] -0.013

LSS (UniProt P48449)
inactive: [1] 0.293 | [2] 0.073 | [3] -0.029 | [4] 0.051 | [5] 0.128 | [6] 0.069 | [7] -0.005 | [8] 0.081 | [9] 0.005 | [10] 0.089

Next part.

LSM4 (UniProt Q9Y4Z0)
inactive: [1] -0.038 | [2] -0.006 | [3] 0.044 | [4] 0.019 | [5] -0.026 | [6] 0.053 | [7] 0.007 | [8] -0.012 | [9] 0.019 | [10] 0.068

MAN2B1 (UniProt O00754)
inactive: [1] -0.035 | [2] -0.014 | [3] -0.03 | [4] 0.086 | [5] 0.014 | [6] 0.031 | [7] -0.044 | [8] -0.062 | [9] -0.016 | [10] 0.003

MAN1A1 (UniProt P33908)
inactive: [1] 0.011 | [2] -0.07 | [3] 0.01 | [4] -0.009 | [5] 0.025 | [6] 0.029 | [7] 0.008 | [8] -0.042 | [9] 0.032 | [10] -0.017

LTO1 (UniProt Q8WV07)
inactive: [1] -0.095 | [2] 0.072 | [3] 0.032 | [4] 0.059 | [5] 0.002 | [6] 0.089 | [7] -0.035 | [8] -0.052 | [9] -0.032 | [10] 0.169

MACC1 (UniProt Q6ZN28)
inactive: [1] -0.02 | [2] 0.051 | [3] 0.028 | [4] 0.092 | [5] 0.063 | [6] 0.064 | [7] 0.008 | [8] -0.149 | [9] -0.085 | [10] 0.179

MARCKS (UniProt P29966)
inactive: [1] -0.033 | [2] -0.032 | [3] 0.061 | [4] 0.045 | [5] -0.026 | [6] 0.048 | [7] 0.119 | [8] 0.025 | [9] 0.01 | [10] 0.118

LRWD1 (UniProt Q9UFC0)
inactive: [1] 0.035 | [2] 0.361 | [3] 0.074 | [4] -0.089 | [5] 0.076 | [6] -0.061 | [7] 0.112 | [8] 0.148 | [9] -0.061 | [10] -0.045

LYAR (UniProt Q9NX58)
inactive: [1] -0.236 | [2] -0.234 | [3] -0.716 | [4] -0.011 | [5] -0.08 | [6] 0 | [7] -0.182 | [8] -0.031 | [9] -0.013 | [10] -0.249

MAP3K4 isoform 2 (UniProt Q9Y6R4)
inactive: [1] -0.027 | [2] 0.019 | [3] 0.036 | [4] -0.023 | [5] 0.039 | [6] -0.017 | [7] -0.023 | [8] -0.031 | [9] 0.034 | [10] 0.07

LZTFL1 (UniProt Q9NQ48)
inactive: [1] -0.038 | [2] 0.018 | [3] 0.068 | [4] 0.082 | [5] 0.025 | [6] 0.044 | [7] -0.041 | [8] -0.014 | [9] 0.014 | [10] 0
